# In PubChem BioAssay AID1347423 (Functional Genomics Laboratory (NCATS/FGL), 2020):
# Hit rate of the full screen: of about 52,000 sequences, about 210 (0.4%) were called active.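 Rule for the calls: active = gene whose silencing raises cell survival under the drug, median off-target-corrected z-score across its silencing RNAs 2 or more; inactive = the rest.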 Some of the results follow.
# Assay: Resistance to Poly (ADP-Ribose) Polymerase inhibitor: Gene Identification via Genome-wide siRNA Screen
# Details: mouse BRCA2 R2336H ES cells, olaparib, CellTiter-Glo viability; hits give high values
# How it was run: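 Mouse BRCA2 R2336H ES cells were reverse-transfected with siRNA (20 nM final), treated at 48 h with 500 nM olaparib, and read by CellTiter-Glo after 72 h. Scores: MAD-based z per siRNA, median per gene, seed off-target correction.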
row,Sequence,z-score
1,GGCAAGAUCCACAUCAACUTT against LOC434008,inactive: 2.2
2,UUUGCUGUCCUUUCUUUCATT against Olfr122,inactive: -0.703
3,GGAGCAGUGCAUUGAGACCTT against Adcy6,inactive: 1.28
4,GGCUGAGAAGCAAAAACUCTT against Olfr1496,inactive: 0.628
5,GGAGAUUAACCGGAGAAUGTT against Ptpra,inactive: 1.2
6,GGAGAAGCUGAAAUUGAAATT against Cfi,inactive: -0.0106
7,GGAUACCUAUAGAAAAUGUTT against 5730592L21Rik,inactive: 1.08
8,GGGUUGAUUUGGUGUUUUATT against Usp46,inactive: 0.344
9,CCAUGCCAAGUCUCUACACTT against BC014685,inactive: -0.807
10,GCAAAAAUGGUUCUCCAUATT against Plxnc1,inactive: -0.777
11,GGGUCGGCUUAUAAUUACUTT against 4930523C11Rik,inactive: -1.01
12,GGUAUUGUCUCUAGGAGACTT against 4932414J04,inactive: 0.161
13,GCUGCUGAGACGGUUACCUTT against AL022818,inactive: -0.864
14,GGUAAACCUGCCAAUUUUGTT against 9230106D23Rik,inactive: 0.573
15,GGUGAACGCAUCCGCUAGUTT against Fscn1,inactive: -0.197
16,GGUUUCCUGACAGAAAACCTT against 4930511H01Rik,inactive: 0.804
17,CGCGUUCGGUUAUGUAAAUTT against Wnt1,inactive: -0.72
18,GGAGAAAAUCCAUCUUGAATT against AU018778,inactive: 0.214
19,CCCAGGCCACUGAUCUAAGTT against Chrm5,inactive: 1.01
20,GGGUUUGGUCUCAUAUAAATT against Samd7,inactive: 0.617
21,GGAACUGGACAUCCAAACUTT against B3galt2,inactive: 0.513
22,GGCUUUCAGAAGUUUAUCATT against Gpr49,inactive: -0.818
23,CCUGCCAUAGUUAGUUUUUTT against AY238603,inactive: 1.58
24,CCAGGAUUGAUUUAGAAAATT against D730018G16,inactive: 0.172
25,CCACGAUUGCCAAACGUGATT against Dido1,inactive: -0.194
26,CCAUGAAUACCGAUGAGGATT against Kcnk9,inactive: 0.536

row,Sequence,z-score
1,GAUUUUCCUGCUCACAAUGTT against Olfr1269,inactive: 0.547
2,GGUCAUCGGGUAAUUAAUCTT against Rad52,inactive: 0.819
3,CGCGCUGCUCAAAAACUAUTT against Gh,inactive: 0.0846
4,CGAAUUCAAAAAGCUAGAGTT against Gsto1,inactive: -0.281
5,GCUGUGAAGAAUCAGAUAGTT against Aatf,inactive: -0.722
6,UGGAUACUCUAUCUCAAGCTT against Serpinb9g,inactive: -1.08
7,GGUCACAUGGAGCUUUAUGTT against Il4ra,inactive: 0.82
8,CCCACCUAGGUUCAUCCCATT against Fath,active: 2.93
9,GGAAGACAUGGUUUUGAAGTT against V1rh1,inactive: -0.8
10,GGCAUCUAUACCAGUAAUATT against Mllt6,inactive: 0.806
11,GGAACUGGCAAGACAACCATT against Rfc2,inactive: -3
12,CCUGAAAGCUAAUAUGAAATT against Defb49,inactive: 0.471
13,GCACUAGUUCUCAAUUUAATT against Antxr1,inactive: 0.317
14,GGAUGUUCAACUAAAAGUATT against 1700034M03Rik,inactive: -0.865
15,CGCAUUCCGAUCUACGAGATT against Cart,inactive: 0.219
16,GCUUGGACUGGCUGAAGAATT against Ndufa3,inactive: -1.31
17,GCUAUUGAAGUCUCUUCCGTT against Slc14a1,inactive: 0.0516
18,GCUCCCUAACAGUUGUCUATT against 1110061O04Rik,inactive: 0.287
19,GGUGUCAACAUUGCAUACUTT against C430014D17Rik,inactive: 1.33
20,GGCUUGAGUACGAAUGGGATT against Gdd1,inactive: 0.183
21,GGAGCCUUACUGGAGAUUUTT against Ptplb,inactive: 0.579
22,GGGCCAUUGUCAAGGUGAUTT against Olfr632,inactive: 0.618
23,GGGCUAAGUGUUGAAUUUATT against Csnk1e,inactive: 2.14
24,GGAUCUCGAGUCUCAUCUCTT against 2410075B13Rik,inactive: -1.4
25,GGGAAUUUCAGGCUAUAUUTT against 4732460C16Rik,inactive: -2.04
26,CCCAACAAAAUGCGCGAUUTT against Rasa2,inactive: 0.782

row,Sequence,z-score
1,GGUAUAGAACUGAAGAAGUTT against ORF28,inactive: 0.0528
2,GGGCUUAGCUCACCUUCAUTT against Nrk,inactive: -2.38
3,GGACGAGAAAGCAAAGCAGTT against Mllt10,inactive: 0.302
4,GGUUUUAAAGGAGACCCAGTT against C1qa,inactive: 0.762
5,GGCCUUCACUGGUUAAAAUTT against Ankrd6,inactive: 1.47
6,GGGCUCCACAUGUUUGCAUTT against Ehmt1,inactive: 1.2
7,GGAGAAGAAGUUCUUGCUGTT against Cnnm2,inactive: -1.14
8,GGUACAUCGCCAUUUGCCATT against Trhr2,inactive: -0.664
9,CGAUUUGCCUUAUUUUUCATT against Litaf,inactive: 1.24
10,GGUGUGUGUAUGGUAGGACTT against 5330431N19Rik,inactive: 0.629
11,GGAUGCUCUGCUAAUGAUUTT against Cadps2,inactive: -0.939
12,GGUCUUUUCUACAUGUGGATT against Olfr389,inactive: 0.292
13,CCUUGGGAAUUACCCAGAGTT against Ctag3,inactive: -0.56
14,GCUUCAAACUAGUUCCAAATT against H1foo,inactive: -1.33
15,GAUCCGUAUUACCUAUUGUTT against Rex3,inactive: -1.18
16,GGUACAUACUUAUGAAAAGTT against Havcr1,inactive: -0.286
17,CCUUGUAUAUGAGCGAAAATT against 1190003K14Rik,inactive: -0.491
18,CGGAGAGACUUUGCCUCUATT against Samd11,inactive: 0.507
19,GCGAUUGGCAGAUUGCUACTT against Tm4sf10,inactive: -0.219
20,GGACUUACAAUCCACCAGATT against Ptgds2,inactive: 0.792
21,GGAAGAGAGAGAAUUACUATT against 3300001P08Rik,inactive: -2.68
22,GGAUCAAUCGUUUUGCUUGTT against Epb4.1l2,inactive: -0.508
23,GCCAUAUCAACUAGUGCAGTT against 6430529G09Rik,inactive: -0.403
24,GGCUUGUGUCCACUUAGCATT against Olfr1404,inactive: -0.375
25,GGAGAAGUUCAGAUCUUUGTT against AI118078,inactive: -0.0775
26,CCUCUAGAGAUCAAUGAGATT against 2610111M03Rik,inactive: -0.188

row,Sequence,z-score
1,AUGUCUCAGGUGCCUAAGGTT against MGC91195,inactive: -0.247
2,GGAAGAUGAACAAACGACATT against 1810029G24Rik,inactive: 0.664
3,GGUUUUCAAAGUCCUGAAUTT against Myo3a,inactive: 0.331
4,CCGCCUACAUGGUUCUCUUTT against Vat1,inactive: 0.238
5,GGGCUUCUUUAGAAGAACCTT against Thrb,inactive: 0.308
6,GGACUUUGUUUCUUGAUGGTT against Dkk1,inactive: 1.1
7,CCCUGGCCAAACAUAGUGGTT against BC060267,inactive: -1.05
8,GACGACAUUCAUGAAGCGCTT against Rasl2-9,inactive: -1.11
9,GGCUCUUCGUCGGAAGAAUTT against Ccdc9,inactive: -0.288
10,GGUACAUGUAUUGUUUCACTT against Cyp2c38,inactive: 1.74
11,GGCGUGGUUUCUGUCUGUUTT against Ihpk1,inactive: -2.15
12,GGAUAUCAUGAAAACACUCTT against Katna1,inactive: 1.91
13,GGGCAAGGAUGUGUUGAAATT against Dhx37,inactive: 0.6
14,GGCUUGACUUCUCCAAACATT against A730011L11,inactive: 3.27
15,CCACAAUUGGGUAAGAUUATT against Glipr2,inactive: -1.43
16,GGGCUUGUUAGCAUCAUCCTT against Olfr382,inactive: 1.8
17,CCAUAUAGCCUCAAAAUCGTT against Acat2,inactive: -0.833
18,GGAGAUCUACAAGGAAUUCTT against Men1,inactive: 0.707
19,GGCAAUAACAUUGCCUCGGTT against Igf1r,inactive: 1.81
20,GCAGAAAAUCGCUACCCAGTT against D16Ertd480e,inactive: 0.759
21,GGAUAACAGCAAGCUGGCGTT against Taldo1,inactive: 0.13
22,GGACCAAUCCUACAAUAUATT against Cyp19a1,inactive: 1.53
23,GGAAGAGGAAGAAAUUAUATT against Zbtb33,inactive: -0.0676
24,GGAAUUCAACAGACAAAUATT against Paip2,inactive: -0.149
25,GGCUAACAAACUCAUACCCTT against Guca2a,inactive: -0.789
26,GACGAAAACCAACAGCACGTT against Rbp2,inactive: 0.391

# Some of the entries so far, tab-delimited:
row	Sequence	z-score
26	CCUCUAGAGAUCAAUGAGATT against 2610111M03Rik	inactive: -0.188
1	AUGUCUCAGGUGCCUAAGGTT against MGC91195	inactive: -0.247
3	GGUUUUCAAAGUCCUGAAUTT against Myo3a	inactive: 0.331
4	CCGCCUACAUGGUUCUCUUTT against Vat1	inactive: 0.238
6	GGACUUUGUUUCUUGAUGGTT against Dkk1	inactive: 1.1
7	CCCUGGCCAAACAUAGUGGTT against BC060267	inactive: -1.05
8	GACGACAUUCAUGAAGCGCTT against Rasl2-9	inactive: -1.11
9	GGCUCUUCGUCGGAAGAAUTT against Ccdc9	inactive: -0.288
10	GGUACAUGUAUUGUUUCACTT against Cyp2c38	inactive: 1.74
11	GGCGUGGUUUCUGUCUGUUTT against Ihpk1	inactive: -2.15
12	GGAUAUCAUGAAAACACUCTT against Katna1	inactive: 1.91
13	GGGCAAGGAUGUGUUGAAATT against Dhx37	inactive: 0.6
15	CCACAAUUGGGUAAGAUUATT against Glipr2	inactive: -1.43
16	GGGCUUGUUAGCAUCAUCCTT against Olfr382	inactive: 1.8
17	CCAUAUAGCCUCAAAAUCGTT against Acat2	inactive: -0.833
18	GGAGAUCUACAAGGAAUUCTT against Men1	inactive: 0.707
19	GGCAAUAACAUUGCCUCGGTT against Igf1r	inactive: 1.81
20	GCAGAAAAUCGCUACCCAGTT against D16Ertd480e	inactive: 0.759
21	GGAUAACAGCAAGCUGGCGTT against Taldo1	inactive: 0.13
22	GGACCAAUCCUACAAUAUATT against Cyp19a1	inactive: 1.53
23	GGAAGAGGAAGAAAUUAUATT against Zbtb33	inactive: -0.0676
24	GGAAUUCAACAGACAAAUATT against Paip2	inactive: -0.149
25	GGCUAACAAACUCAUACCCTT against Guca2a	inactive: -0.789
26	GACGAAAACCAACAGCACGTT against Rbp2	inactive: 0.391
